Consider 16 compounds from the supplement of paper PMC8007513.

The other results are listed elsewhere or left out. Many values rest on one well or one pass, so single values are uncertain.

For this experiment, the system named is Saccharomyces cerevisiae BY4743. Nature of the experiment: growth (OD600) relative to untreated control; higher = less growth inhibition. The following applies: compound concentration: 133 uM; 20 h. The method, then: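 NMCCC compounds (133 uM, no IPBC) tested alone against Saccharomyces cerevisiae BY4743 in YPD, 96-well plates, starting OD600 ~0.1. Growth was read as OD600 at 20 h and expressed as % of the untreated control. Single pass.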
In turn, `CNC(=O)\C1=C(/NCC2=CC=CO2)C3=CC=CC=C3[S]1(=O)=O` gave a growth of 91.6%. As for `CN(Cc1ccc(Cl)s1)C(=O)CSc1nnc(-c2ccc[nH]2)o1`, the growth was determined as 87.9%. `COC(=O)c1cc2oc(C)cc2n1CC(=O)N1CC(C)CC(C)C1` (stereo unspecified) registered a growth of 104%. Regarding `CC(C)(C)c1cc(NC(=O)CSc2nnc(NCCc3cccs3)s2)on1`, the growth turned out to be 99.8%. Then `CCCCn1c(COC(=O)c2ccc(Cl)s2)nc2cc(S(N)(=O)=O)ccc21`, with 96.5%; and `COC/1=C/C(=O)N(/N=C1C(=O)NC2=CC=C(F)C(=C2)C(F)(F)F)C3=CC=C(C)C=C3`, with 95.2%; and `CCOc1cc(C)nn1-c1ccccc1`, with 99%. Then `COC(=O)\C1=C(/C)N\2C(=O)CSC2=N/C1C3=CC(=CC=C3OC)OC` (stereo unspecified), with 89.1%; and `CC(C)(C)NC(=O)CN1CCCN(C(=O)CCc2ccc(S(=O)(=O)N3CCOCC3)cc2)CC1`, with 112%; and `Cc1cccc(Cl)c1NS(=O)(=O)c1ccc(C)c(N2CCCC2=O)c1C`, with 116%. For the compound `OC1(C\C(=N/N1C(=O)C2CC2)C3=CC=CC=C3)C(F)(F)F` (stereo unspecified), the growth was determined as 98.2%. Consider `CC(C)CCC(C)NC(=O)C1=CC2=C(C=C1Cl)N\3CCCCCC3=N/[S]2(=O)=O` (stereo unspecified), for which the growth stood at 114%. On to `CSc1nc(NCCN(C)C)c(C#N)c(-c2ccc(C(C)(C)C)cc2)n1`, for which the growth was found to be 4.82%. With `O=C(CSc1ccc(-c2cccs2)nn1)NC1CCCCC1`, the growth is 91.1%. For `CCN(CC)CCNC(=O)c1cnn(-c2cccc(C)c2)c1-n1cccc1`, the growth worked out at 105%. The compound `COC(=O)\C1=C(/N)OC2=CC(=NC(=C2C1C3=CC=CC=C3)O)C` (stereo unspecified) came in with a growth of 90.9%.
